Measurements reported in PubChem BioAssay AID296 (DTP/NCI, 2004).
The list is a part of this screen's results and no random one: it gathers tests that were run many times, whatever their T/C, doses with no T/C, and many T/C values between a quarter and a half above the control. Other doses and runs of a compound stand elsewhere. T/C: endpoint of the treated group in % of that of the vehicle group. Schedule codes are those of the source, read here as Q, the interval in days (D) or hours (H), X, the number of doses. Some doses were run more than once; the results are listed from low to high. Some values lie below zero, which means that the treated tumours became smaller. Some T/C values carry the count of animals alive at the toxicity check (mostly the fifth day); without a count, all were alive then. Some entries give survivors of the animals treated and no T/C: the source files T/C as zero there, which appears to mark a toxic dose or a test without result, not a measured value. Counts of survivors are from the toxicity check (mostly the fifth day) where no day follows; animals may have died later.

Tested on: MX-1 breast xenograft, nude mice, tumor weight T/C
Test: NCI In Vivo Anticancer Drug Screen. Data for tumor model Human Mammary Carcinoma MX-1 Xenograft (intrarenal inoculation) in NU/NU Swiss (nude) mice
Details: T/C endpoint: mean tumor weight change, higher T/C = larger tumour; for T/C: evaluated on day 11
Procedure, shortened: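 Activity is given as a ratio, with each measurement in the compound-treated arm divided by the matching measurement in vehicle-dosed controls. Tumour size or survival serves as the measured parameter.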

[1] = dose: 50.0 mg/kg/injection, schedule: Q04DX003 (sc), vehicle: saline
[2] = dose: 100.0 mg/kg/injection, schedule: Q04DX003 (sc), vehicle: saline
[3] = dose: 150.0 mg/kg/injection, schedule: Q04DX003 (sc), vehicle: Klucel (hydroxypropylcellulose) (HPC)
[4] = dose: 300.0 mg/kg/injection, schedule: Q04DX003 (sc), vehicle: Klucel (hydroxypropylcellulose) (HPC)
[5] = dose: 600.0 mg/kg/injection, schedule: Q04DX003 (sc), vehicle: Klucel (hydroxypropylcellulose) (HPC)
[6] = dose: 1200.0 mg/kg/injection, schedule: Q04DX003 (sc), vehicle: Klucel (hydroxypropylcellulose) (HPC)
[7] = dose: 2400.0 mg/kg/injection, schedule: Q04DX003 (sc), vehicle: Klucel (hydroxypropylcellulose) (HPC)
[8] = dose: 100.0 mg/kg/injection, schedule: Q01DX010 (sc), vehicle: saline with Tween-80

SMILES: O=P1(N(CCCl)CCCl)NCCCO1 (configuration not stated)
- T/C (dose: 3.13 mg/kg/injection, schedule: Q01DX010 (sc), vehicle: saline): 126 % of control
- T/C (dose: 12.5 mg/kg/injection, schedule: Q04DX003 (sc), vehicle: saline): -100, -76 [5 of 6 alive on day 11], 14, 32, 61 % of control
- T/C (dose: 25.0 mg/kg/injection, schedule: Q04DX003 (sc), vehicle: saline): -100, -98 [5 of 6 alive on day 11], -5, 1, 4 % of control
- survivor count (dose: 50.0 mg/kg/injection, schedule: Q01DX010 (ip), vehicle: saline): 0 of 3 on day 11
- survivor count (dose: 50.0 mg/kg/injection, schedule: Q01DX010 (sc), vehicle: saline): 0 of 3 on day 11
- T/C [1]: -100, -83 [5 of 6 alive on day 11], -62, -40, -23 % of control
- survivor count (dose: 83.33 mg/kg/injection, schedule: Q04DX003 (ip), vehicle: saline): 0 of 3 on day 11
- survivor count (dose: 83.33 mg/kg/injection, schedule: Q04DX003 (sc), vehicle: saline): 0 of 3 on day 11
- survivor count (dose: 100.0 mg/kg/injection, schedule: Q01DX010 (sc), vehicle: saline): 0 of 3 on day 11
- T/C [2]: -100 [5 of 6 alive on day 11], -96, -37 % of control
- survivor count [2]: 0 of 6 on day 11 and 2 of 4 on day 11
- survivor count (dose: 166.65 mg/kg/injection, schedule: Q04DX003 (ip), vehicle: saline): 0 of 3 on day 11
- survivor count (dose: 166.65 mg/kg/injection, schedule: Q04DX003 (sc), vehicle: saline): 0 of 3 on day 11
- survivor count (dose: 333.3 mg/kg/injection, schedule: Q04DX003 (sc), vehicle: saline): 0 of 3 on day 11

SMILES: CC[N+](CC)(CC)CC
- T/C (dose: 3.0 mg/kg/injection, schedule: Q01DX010 (sc), vehicle: saline with Tween-80): 140 % of control
- survivor count (dose: 24.0 mg/kg/injection, schedule: Q01DX010 (sc), vehicle: saline with Tween-80): 0 of 3 on day 11

SMILES: COc1cccc2c1C(=O)c1c(O)c3c(c(O)c1C2=O)C[C@@](O)(C(C)=O)C[C@@H]3OC1CC(N(C)C)C(O)C(C)O1 (some centres not stated)
- survivor count (dose: 8.0 mg/kg/injection, schedule: Q01DX010 (sc), vehicle: water): 0 of 3 on day 11
- survivor count (dose: 16.0 mg/kg/injection, schedule: Q01DX010 (sc), vehicle: water): 0 of 3 on day 11

SMILES: c1ccc([C@H]2CN3CCSC3=N2)cc1
- survivor count (dose: 120.0 mg/kg/injection, schedule: Q04DX003 (sc), vehicle: saline): 0 of 6 on day 11

SMILES: C=C(Cl)C(=NC(C)(C)C)Nc1ccccc1C
- T/C [3]: 145 % of control [4 of 6 alive on day 11]
- T/C [4]: 137 % of control [4 of 6 alive on day 11]
- survivor count [5]: 1 of 6 on day 11

SMILES: CCC1OCC(C(Cl)CCl)O1 (configuration not stated)
- T/C [4]: 39, 57, 74, 76, 110, 137 % of control
- T/C [5]: 33, 34, 93, 98, 108, 122 % of control
- T/C [6]: 6 [4 of 6 alive on day 11], 15, 40, 46 [5 of 6 alive on day 11], 74 % of control
- survivor count [6]: 2 of 6 on day 11
- T/C [7]: 13 [5 of 6 alive on day 11], 26, 45 % of control
- survivor count [7]: 0 of 6 on day 11 and 3 of 6 on day 11

SMILES: [I][Hg][CH2]C1OCCOC1[CH2][Hg][I] (configuration not stated)
- T/C [4]: 129 % of control
- T/C [5]: 142 % of control

SMILES: O=NN(CCCl)C(=O)NC1OC(CO)C(O)C(O)C1O (configuration not stated)
- survivor count (dose: 40.0 mg/kg/injection, schedule: Q04DX003 (sc), vehicle: saline): 3 of 6 on day 11

SMILES: CCC1CN2C(=N1)c1ccccc1-c1cc(Cl)ccc12 (configuration not stated)
- survivor count [8]: 0 of 3 on day 11

SMILES: OC(C1CO1)C(O)C1CO1 (configuration not stated)
- survivor count (dose: 1.0 mg/kg/injection, schedule: Q01DX010 (sc), vehicle: saline): 0 of 3 on day 11
- survivor count (dose: 2.0 mg/kg/injection, schedule: Q01DX010 (sc), vehicle: saline): 0 of 3 on day 11
- survivor count (dose: 4.0 mg/kg/injection, schedule: Q01DX010 (sc), vehicle: saline): 0 of 2 on day 11, 0 of 3 on day 11, 1 of 3 on day 11
- survivor count (dose: 8.0 mg/kg/injection, schedule: Q01DX010 (sc), vehicle: saline): 0 of 3 on day 11

SMILES: O=CC(O)C(O)C(O)C(O)C(=O)O.[NH-]C1CCCCC1[NH-].[Pt+2] (configuration not stated)
- survivor count (dose: 37.5 mg/kg/injection, schedule: Q04DX003 (sc), vehicle: suspension in saline): 3 of 6 on day 11
- survivor count (dose: 75.0 mg/kg/injection, schedule: Q04DX003 (sc), vehicle: suspension in saline): 0 of 6 on day 11

SMILES: CC1(C)OC1CS(=O)c1ccccc1 (configuration not stated)
- T/C (dose: 300.0 mg/kg/injection, schedule: Q04DX003 (sc), vehicle: saline with Tween-80): 125 % of control
- survivor count (dose: 1200.0 mg/kg/injection, schedule: Q04DX003 (sc), vehicle: saline with Tween-80): 2 of 6 on day 11
- survivor count (dose: 2400.0 mg/kg/injection, schedule: Q04DX003 (sc), vehicle: saline with Tween-80): 0 of 6 on day 11

SMILES: Cc1cc(NCCCCCCCNc2cc(C)nc3cc(N)ccc23)c2ccc(N)cc2n1
- survivor count [8]: 0 of 3 on day 11 and 0 of 6 on day 11

SMILES: COc1c(C=O)c2c(c(OC)c1OC)-c1ccc(OC)c(=O)cc1[C@@H](NC(C)=O)CC2
- survivor count (dose: 75.0 mg/kg/injection, schedule: Q04DX003 (sc), vehicle: Klucel (hydroxypropylcellulose) (HPC)): 3 of 5 on day 11
- survivor count [3]: 0 of 5 on day 11

SMILES: COc1cc(NCCCCCCCNC(C)C)c2nccc(C)c2c1
- survivor count (dose: 300.0 mg/kg/injection, schedule: Q04DX003 (sc), vehicle: saline): 1 of 6 on day 11

SMILES: CCN(CC)c1ccc2cc(-c3nc4ccccc4n3C)c(=O)oc2c1
- survivor count [5]: 2 of 6 on day 11

SMILES: O=c1[nH]cnc2c1ccn2C1OC(CO)C(O)C1O (configuration not stated)
- survivor count [1]: 1 of 6 on day 11
- survivor count [2]: 0 of 6 on day 11

SMILES: C=C1C(C)C2C(Cc3ccccc3)NC(=O)C23C(OC(C)=O)C=CC(C)(O)C(=O)C(C)C/C=C/C3C1O (configuration not stated)
- survivor count (dose: 30.0 mg/kg/injection, schedule: Q04DX003 (sc), vehicle: Klucel (hydroxypropylcellulose) (HPC)): 1 of 6 on day 11

SMILES: COC(=O)c1ccoc1
- survivor count (dose: 1200.0 mg/kg/injection, schedule: Q04DX003 (sc), vehicle: saline): 0 of 6 on day 11

SMILES: OCC1OC(n2cnc3c(=S)nc[nH]c32)C(O)C1O (configuration not stated)
- survivor count (dose: 200.0 mg/kg/injection, schedule: Q01DX010 (sc), vehicle: saline): 0 of 3 on day 11
- survivor count (dose: 200.0 mg/kg/injection, schedule: Q01DX010 (sc), vehicle: suspension in saline): 3 of 6 on day 11
- survivor count (dose: 400.0 mg/kg/injection, schedule: Q01DX010 (sc), vehicle: suspension in saline): 1 of 6 on day 11

SMILES: CCCCC(=O)OCC(=O)[C@]1(O)Cc2c(O)c3c(c(O)c2[C@@H](OC2CC(NC(=O)C(F)(F)F)C(O)C(C)O2)C1)C(=O)c1c(OC)cccc1C3=O (some centres not stated)
- survivor count (dose: 512.0 mg/kg/injection, schedule: Q01DX010 (sc), vehicle: distilled water + Tween-80): 0 of 3 on day 11

SMILES: CCCCNC(C)[C@]1(O)Cc2c(O)c3c(c(O)c2[C@@H](OC2CC(N)C(O)C(C)O2)C1)C(=O)c1c(OC)cccc1C3=O (some centres not stated)
- survivor count (dose: 25.0 mg/kg/injection, schedule: Q01DX010 (sc), vehicle: saline): 0 of 3 on day 11 and 1 of 3 on day 11
- survivor count (dose: 36.0 mg/kg/injection, schedule: Q01DX010 (sc), vehicle: saline): 0 of 3 on day 11

SMILES: COc1ccc(C(=O)C(CN(C)C)CN(C)C)cc1
- survivor count [2]: 0 of 6 on day 11
